PubChem BioAssay AID1259254 – NCATS – 2017
Aim: 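Finding genes that stop cells copying their DNA twice in one cycle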 (primary screen). Cell system: human HCT116 colorectal cancer cells. Knock-down reagent: single siRNA against human genes. Timing: 3 days. Measured: 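Nuclei stained with Hoechst and imaged; cell-cycle phase assigned by DNA content; G2 share scaled per plate, non-targeting siRNA 0%, GMNN siRNA 100%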. Reading the numbers: G2 robust z-score and G2 cells, % of GMNN control: higher = more G2 cells, more excess DNA replication; raw share of cells in G2: higher = larger share of cells with G2 DNA content. Rule for the call: 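Active siRNAs have a G2 robust z of 5 or more median absolute deviations over the median, which in these data means about 38% or higher of GMNN control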.
The deposit covers about 59,000 reagents; shown is a random part of them. About 1,550 of all reagents (2.6%) count as active. 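G2 share is only a proxy for re-replication; each gene was hit by three separate siRNAs, and active genes were retested.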 The raw values are shown without normalisation. The numbers tell different reagents against one gene apart. The record does not give: the amount of reagent.

gene	reagent	G2 robust z-score	G2 cells, % of GMNN control	raw share of cells in G2 (%)	activity call
DGAT1	1	1.98	16.9	10.8	inactive
DGAT1	2	-0.0179	2.84	6.26	inactive
DGAT1	3	-1.1	-4.79	2.36	inactive
HS1BP3	1	0.211	4.45	4.36	inactive
HS1BP3	2	2.27	19	14.5	inactive
HS1BP3	3	-0.662	-1.69	3.1	inactive
ATP6V0E1	1	-0.146	1.94	5.43	inactive
ATP6V0E1	2	-0.496	-0.521	4.15	inactive
ATP6V0E1	3	0.166	4.13	4.74	inactive
CARD9	1	7.83	58.1	29.7	active
CARD9	2	-0.0247	2.79	5.34	inactive
CARD9	3	-0.995	-4.03	2.76	inactive
HPR	1	0.805	8.63	8.57	inactive
HPR	2	-0.284	0.968	5.25	inactive
HPR	3	-0.718	-2.08	3.13	inactive
PABIR2	1	-1.35	-6.5	1.27	inactive
PABIR2	2	0.366	5.54	4.82	inactive
PABIR2	3	-0.377	0.316	2.86	inactive
ANP32D	1	0.025	3.14	5.82	inactive
ANP32D	2	3.88	30.2	13.4	inactive
ANP32D	3	-0.582	-1.13	3.16	inactive
CRNDE	1	2.05	17.4	9.73	inactive
CRNDE	2	0.889	9.22	7.42	inactive
CRNDE	3	0.497	6.47	7.41	inactive
CRNDE	4	0.135	3.92	5.13	inactive
CRNDE	5	-0.818	-2.79	2.27	inactive
CRNDE	6	0.643	7.49	5.33	inactive
ZNF251	1	-0.522	-0.706	3.28	inactive
ZNF251	2	-0.428	-0.0441	3.15	inactive
ZNF251	3	-0.563	-0.993	2.75	inactive
TOR1AIP1	1	1.75	15.3	10.2	inactive
TOR1AIP1	2	-0.667	-1.73	3.19	inactive
TOR1AIP1	3	1.05	10.4	6.92	inactive
PCDH8	1	-0.801	-2.67	2.29	inactive
PCDH8	2	-0.139	1.99	5.96	inactive
PCDH8	3	-0.6	-1.26	4.24	inactive
SPDYE2	1	0.376	5.61	5.79	inactive
SPDYE2	2	-0.523	-0.71	3.15	inactive
SPDYE2	3	-0.492	-0.493	2.95	inactive
SPDYE2	4	-0.653	-1.63	2.58	inactive
SPDYE2	5	-0.61	-1.32	2.77	inactive
SPDYE2	6	-0.0413	2.68	5.14	inactive
TAX1BP3	1	4.55	35	17.2	inactive
TAX1BP3	2	0.903	9.32	8.07	inactive
TAX1BP3	3	1.14	11	6.71	inactive
CHRM1	1	0.714	7.99	8.7	inactive
CHRM1	2	-1.16	-5.21	2.7	inactive
CHRM1	3	0.554	6.86	5.37	inactive
AGBL5	1	1.27	11.9	8.56	inactive
AGBL5	2	2.98	24	12.9	inactive
AGBL5	3	2.18	18.3	13.2	inactive
RNF38	1	-0.424	-0.0176	3.82	inactive
RNF38	2	0.514	6.59	4.95	inactive
RNF38	3	-0.298	0.868	3.37	inactive
FAXC	1	0.53	6.7	6.34	inactive
FAXC	2	-0.276	1.02	3.76	inactive
FAXC	3	-0.27	1.06	2.73	inactive
ZNF475	1	-0.413	0.0632	3.57	inactive
ZNF475	2	-0.368	0.375	3	inactive
ZNF475	3	0.643	7.49	6.44	inactive
RXRG	1	-0.448	-0.187	5.62	inactive
RXRG	2	8.65	63.8	26.4	active
RXRG	3	-0.432	-0.0722	3.93	inactive
SMAP1	1	-1.02	-4.2	3.91	inactive
SMAP1	2	4.02	31.2	15.4	inactive
SMAP1	3	-0.215	1.46	4.75	inactive
COG1	1	1.12	10.8	10.2	inactive
COG1	2	3.17	25.3	14.5	inactive
COG1	3	-0.532	-0.775	3.12	inactive
YWHAB	1	-0.585	-1.15	3.83	inactive
YWHAB	2	7.77	57.6	23.4	active
YWHAB	3	-0.644	-1.56	4.94	inactive
NLGN1	1	-0.0868	2.36	7.31	inactive
NLGN1	2	-0.458	-0.255	4.07	inactive
NLGN1	3	-0.541	-0.838	3.58	inactive
SERTAD3	1	-0.132	2.04	3.51	inactive
SERTAD3	2	-1.21	-5.56	3.4	inactive
SERTAD3	3	1.06	10.4	6.9	inactive
NRP1	1	-0.533	-0.783	4.18	inactive
NRP1	2	-1.11	-4.82	3.57	inactive
NRP1	3	-0.447	-0.18	4.64	inactive
DLG4	1	6.58	49.3	22.5	active
DLG4	2	-0.017	2.85	6.03	inactive
DLG4	3	-0.332	0.634	4.31	inactive
SLC47A2	1	0.328	5.27	5.6	inactive
SLC47A2	2	0.413	5.87	4.73	inactive
SLC47A2	3	0.168	4.15	4.52	inactive

In a second layout: results already given
| gene | reagent | G2 robust z-score | G2 cells, % of GMNN control | raw share of cells in G2 (%) | activity call |
| --- | --- | --- | --- | --- | --- |
| TOR1AIP1 | 1 | 1.75 | 15.3 | 10.2 | inactive |
| TOR1AIP1 | 2 | -0.667 | -1.73 | 3.19 | inactive |
| TOR1AIP1 | 3 | 1.05 | 10.4 | 6.92 | inactive |
| PCDH8 | 1 | -0.801 | -2.67 | 2.29 | inactive |
| PCDH8 | 2 | -0.139 | 1.99 | 5.96 | inactive |
